# “And” between values parts separate entries of the source, which are not always exact repeats. Identical values can stand only once. The campaign covered roughly 580,000 compounds. About 6,100 (1.1%) were called active. The inconclusive results got no clear call from the source; some entries with a clear call stand among them for comparison. Calls come from the whole dose curve; as a rule, active = well fitted inhibition curve with a large enough effect; inconclusive = small, poorly fitted or top-dose-only effect, or another doubt; inactive = no such curve, though single readings can be large or run the other way. Potencies beside an inconclusive call are fits to weak or partial responses and may not hold up.
# By UniProt entry, the sequences of proteins in these tests, tags left out. Where a name states a change or a piece, a line headed by the entry shows the natural chain unless it says otherwise.
# UniProt P18054: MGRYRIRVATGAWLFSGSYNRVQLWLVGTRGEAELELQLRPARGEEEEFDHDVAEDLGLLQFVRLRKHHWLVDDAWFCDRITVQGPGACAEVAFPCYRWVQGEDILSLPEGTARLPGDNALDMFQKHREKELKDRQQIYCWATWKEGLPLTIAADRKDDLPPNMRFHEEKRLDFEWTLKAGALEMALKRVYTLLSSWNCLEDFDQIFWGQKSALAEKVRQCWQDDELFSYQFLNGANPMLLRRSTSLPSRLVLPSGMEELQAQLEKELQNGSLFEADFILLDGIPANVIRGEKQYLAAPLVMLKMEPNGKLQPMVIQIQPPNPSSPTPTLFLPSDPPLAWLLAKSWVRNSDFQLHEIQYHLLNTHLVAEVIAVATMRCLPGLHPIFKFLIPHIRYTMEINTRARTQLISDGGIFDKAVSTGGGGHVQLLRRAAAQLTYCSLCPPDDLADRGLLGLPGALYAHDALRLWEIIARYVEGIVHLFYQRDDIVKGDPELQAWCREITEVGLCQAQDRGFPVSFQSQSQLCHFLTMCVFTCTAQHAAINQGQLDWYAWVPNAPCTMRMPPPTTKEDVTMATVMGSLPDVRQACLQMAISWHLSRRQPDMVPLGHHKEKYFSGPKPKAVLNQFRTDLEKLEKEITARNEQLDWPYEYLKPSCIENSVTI
# Target: Polyunsaturated fatty acid lipoxygenase ALOX12 (Homo sapiens) (UniProt P18054)
# Experiment: Primary qHTS assay for inhibitors of human arachidonate 12S-lipoxygenase (ALOX12): Round 2
# Conditions: purified 12hLO, xylenol orange hydroperoxide absorbance; series mostly up to 108 µM
# Outline: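 Hydroperoxide product was detected by ferrous iron/xylenol orange as the 573 to 405 nm absorbance ratio. Arachidonic acid at 40 uM (final) was turned over for 30 min at room temperature by 150 nM human 12hLO, pH 7.0 Hepes buffer, after 15 min compound preincubation.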
# Potency is the fitted concentration of half-maximal effect.
row,Compound,Potency
1,Cc1ccsc1C(=O)Nc1nc2ccccc2[nH]1,inactive
2,Cc1cccc(NC(=O)c2sc3nc(-c4cc5ccc(O)cc5oc4=O)[nH]c(=O)c3c2C)c1,"inconclusive: 44.7 µM [inhibitor, partial curve, poor fit]"
3,CC(Oc1ccc(F)cc1)C(=O)Nc1cc(S(=O)(=O)N2CCCCC2)ccc1N1CCOCC1 (centres undefined),"inconclusive: 12.6 µM [inhibitor, full curve]"
4,CCSc1nc2cc(C(=O)OC)ccc2c(=O)n1CC,"inconclusive: 50.1 µM [inhibitor, partial curve, poor fit]"
5,COc1ccc(/C=C2\Oc3cc(OS(C)(=O)=O)ccc3C2=O)cc1,inactive
6,O[C@H](CCCN1CCN(c2ncc(F)cn2)CC1)c1ccc(F)cc1,"inconclusive: 35.5 µM [inhibitor, partial curve, poor fit]"
7,CCN(Cc1ccccc1)C(=O)C(=O)c1c(C)n(C)c2ccccc12,"inconclusive: 2.82 µM [inhibitor, full curve, poor fit]"
8,COc1ccc(-c2cc(=O)n(-c3ccc(C)c(C)c3)[nH]2)cc1,inactive
9,COc1ccc(C(=O)N/N=C/C2CC=CCC2)cc1OC (centres undefined),"inconclusive: 1.12 µM [inhibitor, full curve, poor fit]"
10,Cc1cccc(C)c1NC(=O)c1sc(-n2nc(C)c(Cc3ccc4c(c3)OCO4)c2C)nc1C,inactive
11,Cc1ccc(C2=CC(=O)CC(c3ccccc3)C2)cc1 (centres undefined),inactive
12,Cc1cccc(-n2nnnc2SC(C)C(=O)NCCC2=CCCCC2)c1 (centres undefined),"inconclusive: 35.5 µM [inhibitor, single point]"
13,Cc1ccc(/C([O-])=C(/C(=S)NCc2ccccc2)[n+]2cccc(CO)c2)cc1[N+](=O)[O-],inactive
14,O=[N+]([O-])c1ccc(N/N=C/c2ccccc2)c(F)c1,"inconclusive: 11.2 µM [inhibitor, full curve, poor fit]"
15,Cc1cc(C)cc(OCC(=O)Nc2ccc(N3CCOCC3)cc2N2CCOCC2)c1,"inconclusive: 112 µM [inhibitor, partial curve, poor fit]"
16,CN1CCN(c2ncc3nc(-c4ccccc4)c(=O)n(Cc4ccc(F)cc4)c3n2)CC1,active: 35.5 µM
17,O=C1Nc2ccc(Br)cc2/C1=C/C1CC=CCC1 (centres undefined),"inconclusive: 79.4 µM [inhibitor, partial curve, poor fit]"
18,Cc1nccn1CC1CCc2c(c3ccccc3n2C)C1=O (centres undefined),"inconclusive: 17.2 µM [inhibitor, partial curve, poor fit]"
19,Cc1ccc(NC(=O)c2ccc(Cl)c(S(=O)(=O)NCc3ccco3)c2)c(O)c1,"inconclusive: 100 µM [inhibitor, partial curve, poor fit]"
20,Cc1ccc(NC(=O)Cn2nc3c(cc2=O)CCCC3)cc1Cl,"inconclusive: 89.1 µM [inhibitor, partial curve, poor fit]"
21,CCOc1ccc(-c2nc(CNC(=O)Nc3ccc(C)c(C)c3)c(C)o2)cc1,"inconclusive: 50.1 µM [inhibitor, partial curve, poor fit]"
22,COc1ccc2nc(C(c3ccc(C)cc3)n3c(-c4ccccc4Br)nc4ccccc43)[nH]c2c1 (centres undefined),"inconclusive: 112 µM [inhibitor, single point]"
23,COc1cc(CNCCSc2nnnn2C)ccc1OCc1ccc(Cl)cc1Cl,active: 39.8 µM

row,Compound,Potency
1,CSCc1c(C(=O)NC2CCCc3ccccc32)oc2ccccc12 (centres undefined),"inconclusive: 39.8 µM [inhibitor, partial curve]"
2,O=C(O)C1CCN(S(=O)(=O)c2cc(Cl)cc(Cl)c2)CC1,inactive
3,CCOC(=O)C1C(=O)OC(C)(C)C1C(CC)C(=O)c1c(C)cc(C)cc1C (centres undefined),"inconclusive: 126 µM [inhibitor, single point]"
4,O=C(Nc1ccc(Cl)cc1F)c1nccnc1-c1nc2ccccc2s1,"inconclusive: 44.7 µM [inhibitor, partial curve, poor fit]"
5,CCc1cccc2c(C(=O)COC(=O)c3ccccn3)c[nH]c12,"inconclusive: 56.2 µM [inhibitor, partial curve]"
6,COCCn1cnc2c1c(=O)n(CC(=O)Nc1ccc3c(c1)OCO3)c(=O)n2Cc1ccccc1,"inconclusive: 44.7 µM [inhibitor, single point]"
7,COC(=O)c1ccc(C2NC(=O)c3c(sc(C)c3C)N2)cc1 (centres undefined),"inconclusive: 31.6 µM [inhibitor, single point]"
8,Cc1ccc(-c2cc(C(=O)OCC(=O)NC(=O)NC(C)(C)C)c3ccccc3n2)o1,"inconclusive: 5.01 µM [inhibitor, full curve, poor fit]"
9,COc1ccc(OC)c(/C=c2\sc3nc(-c4cccs4)nn3c2=O)c1,inactive
10,CC(C(=O)Nc1ccc2c(c1)OCO2)N(C)CC(=O)Nc1ccc(Cl)cc1 (centres undefined),"inconclusive: 44.7 µM [inhibitor, partial curve]"
11,Nc1nc(SCc2c(Cl)cccc2Cl)n[nH]1,"inconclusive: 11.2 µM [inhibitor, partial curve, poor fit]"
12,Cc1cnc(NC(=O)C(C)(C)Oc2cc(Cl)ccc2Cl)s1,inactive
13,O=C(CCc1c[nH]c2ccccc12)N1CCCC1,"inconclusive: 31.6 µM [inhibitor, partial curve, poor fit]"
14,CN(Cc1ccccc1)c1ccc(C(CC(N)=O)NC(=O)Cc2cccc3ccccc23)cc1[N+](=O)[O-] (centres undefined),"inconclusive: 8.91 µM [inhibitor, single point]"
15,Cc1nn(-c2ccccc2[N+](=O)[O-])c(C)c1[C@@H]1C=C[C@@H](NCc2ccc(F)cc2)C1,inactive
16,CN1C(=O)c2ccccc2NC1c1cc2ccccc2[nH]c1=O (centres undefined),active: 7.08 µM
17,COc1ccc(-c2cc3ccc(OCCN4CCN(CCO)CC4)cc3oc2=O)cc1,inactive
18,COc1ccccc1C(=O)NC(=S)Nc1ccc(NC(=O)c2ccco2)cc1,inactive
19,COc1cccc(NC(=O)CCS(=O)(=O)c2ccc(Br)cc2)c1,"inconclusive: 4.47 µM [inhibitor, full curve, poor fit]"
20,CC(C)Oc1ccc(CNC(=O)Cn2c(=O)nc3n2C(=O)N(c2ccccc2)C3)cc1,inactive
21,CCOC(=O)CN(C(=O)COc1nc(-c2ccccc2)cc(C)c1C#N)c1cccc(OC)c1,inactive
22,Cc1nc2ccccc2c(C)c1CC(=O)NCCc1ccccc1F,active: 17.8 µM
23,CCSc1nc(N2CCOCC2)c2c(c1C#N)CCCC2,"inconclusive: 8.91 µM [inhibitor, partial curve, poor fit]"

row,Compound,Potency
1,Cc1ccc(C(=O)N2CCC(CCC(=O)NCc3nc4ccccc4n3C)CC2)cc1,inactive
2,COc1ccc(C(=O)OCc2ccccc2C#N)c(OC)c1,inactive
3,CNC(=O)c1cc(=O)n(CC(=O)Nc2ccccc2)c2ccccc12,inactive
4,Cc1n[nH]c(=S)n1/N=C/c1ccccc1,inactive
5,CC(C)(C)c1ccc(/C=C2\Oc3cc(O)ccc3C2=O)cc1,inactive
6,Cc1cccc(OCc2nnc(SCc3ccc(Cl)c(Cl)c3)n2C)c1C,"inconclusive: 31.6 µM [inhibitor, single point]"
7,Cc1cc(C)c(NC(=O)c2cc(C)nc3ccccc23)c(C)c1,inactive
8,O=C1CCCc2c1nc(-c1ccccc1F)n2O,"inconclusive: 50.1 µM [inhibitor, single point]"
9,Oc1ccc(N2CCN(c3nc(-c4cccs4)nc4ccccc34)CC2)cc1,"inconclusive: 50.1 µM [inhibitor, partial curve, poor fit]"
10,CC(C)Cn1c(N2CCN(Cc3c(Cl)cccc3Cl)CC2)nc2c1c(=O)[nH]c(=O)n2C,"inconclusive: 2.82 µM [inhibitor, full curve, poor fit]"
11,CC(c1ccccc1)N(C)C(=O)COC(=O)c1c[nH]c2ccccc12 (centres undefined),"inconclusive: 112 µM [inhibitor, single point]"
12,Cc1ccc(C(=O)NC(=S)Nc2ccc(Oc3ccc(Cl)cc3)cc2)cc1,active: 7.94 µM
13,Fc1ccccc1NC(=S)NCCc1ccc(C(F)(F)F)cc1,"inconclusive: 35.5 µM [inhibitor, full curve, poor fit]"
14,COc1ccc(/C=C2\SC(=S)N(CCC(=O)Nc3cccc(C(=O)O)c3)C2=O)cc1,inactive
15,O=C(Nc1nccs1)C1CCCN1S(=O)(=O)c1ccc(Cl)cc1 (centres undefined),"inconclusive: 44.7 µM [inhibitor, partial curve, poor fit]"
16,On1onc2c3cc(-c4ccccc4)nc3ccc21,"inconclusive: 8.91 µM [inhibitor, full curve, poor fit]"
17,Cc1ccc(C)c(SCC(=O)Nc2cccnc2Cl)c1,inactive
18,COc1ccc(CN2CCOC(c3cccnc3)C2)cc1Cn1cccn1 (centres undefined),"inconclusive: 3.55 µM [inhibitor, full curve, poor fit]"
19,CN(Cc1nc2ccccc2n1C(F)F)S(=O)(=O)c1ccccc1Br,"inconclusive: 44.7 µM [inhibitor, partial curve, poor fit]"
20,COc1ccccc1C(CCNS(=O)(=O)c1ccc(C)cc1)c1ccco1 (centres undefined),"inconclusive: 44.7 µM [inhibitor, partial curve, poor fit]"
21,O=C(CCN1CCC(c2ccccc2)C1)c1ccccc1 (centres undefined),"inactive and inconclusive: 56.2 µM [inhibitor, partial curve, poor fit]"
22,Cc1ccc(S(=O)(=O)N2CCC(=O)N([C@H](CO)Cc3ccccc3)CC2)cc1,"inconclusive: 44.7 µM [inhibitor, single point]"
23,CCn1c(SCC(=O)Nc2ccc3c(c2)c2ccccc2n3CC)nnc1-c1ccco1,active: 11.2 µM

# Reference: PubChem BioAssay AID1671190 (National Center for Advancing Translational Sciences (NCATS), 2021)
